These are yes or no findings as the source states them, for the method shown. Some results given as binding are weak or reduced against the parent protein; the word gives no strength.
T1: human thioredoxin-like 32 kDa protein (hTXNL) (human) (UniProt O43396)
T1 sequence: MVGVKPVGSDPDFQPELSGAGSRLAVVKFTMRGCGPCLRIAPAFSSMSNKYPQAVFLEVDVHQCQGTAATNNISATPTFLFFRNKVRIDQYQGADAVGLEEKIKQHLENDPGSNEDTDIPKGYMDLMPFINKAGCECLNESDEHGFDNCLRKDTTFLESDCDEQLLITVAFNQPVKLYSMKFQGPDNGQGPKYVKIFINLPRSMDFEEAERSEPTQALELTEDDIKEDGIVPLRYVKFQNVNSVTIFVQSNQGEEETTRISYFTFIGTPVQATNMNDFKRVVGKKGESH


Key:
[1] = target: T1, human thioredoxin-like 32 kDa protein (hTXNL) (human); test: yeast two-hybrid, beta-galactosidase read-out, interaction profile compared with functional profile
[2] = target: T1, human thioredoxin-like 32 kDa protein (hTXNL) (human); test: yeast two-hybrid interaction assay
[3] = target: T1, human thioredoxin-like 32 kDa protein (hTXNL) (human); test: yeast two-hybrid assay

binding [1] | binding [2] | binding [3] | Binder
binds | binds | binds | PERCYMRMPPQSLADAQIYS (peptide, not shown: large carriers) [peptide DR15wt]
 | binds | binds | AARCYMRMPPQSLADAQIYS (peptide, not shown: large carriers) [peptide DR15PE]
 | binds | binds | PERCAARMPPQSLADAQIYS (peptide, not shown: large carriers) [peptide DR15YM]
 | binds | binds | PERCYMRMPPQSLADAAAYS (peptide, not shown: large carriers) [peptide DR15QI]

Reference: patent US20040014149A1 (RIGEL PHARMACEUTICALS, published 2004)
